Values from PubChem BioAssay AID1259308 (NCATS, 2017).
Here is an unselected part of about 59,000 deposited reagents. About 1,510 of all reagents (2.6%) count as active. 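Calls use total luciferase alone and ignore viability, so some active siRNAs may act by altering cell number.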 Reagents against one gene are numbered here. Further read-outs or replicates are left out here. Reagent sequences are not shown.

- Purpose: 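Knock-downs that increase output of a recombinant reporter protein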 (primary screen)
- System: human HEK293 embryonic kidney cells stably expressing firefly luciferase (HEK-CMV-Luc2-Hygro)
- Reagent: single siRNA against human genes, 0.8 pmol siRNA per well
- Duration: 72 h
- Measured: 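Luciferase light (ONE-Glo) measured on one replicate plate set and viability (CellTiter-Glo) on the other, scaled to a negative control siRNA, with robust z-scores and luciferase per cell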
- Reading the numbers: total luciferase, z-score and total luciferase, % of control: higher = more reporter protein produced
- Hit rule: 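An siRNA counts as active if its total luciferase robust z-score exceeds 3; genes with two or more such siRNAs out of three were retested with fresh siRNAs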
- Calls: active = raised luciferase; inactive = no rise

What did the screen give for STRN4 #1?
total luciferase, z-score: -0.736; total luciferase, % of control: 67.3; activity call: inactive

With STRN4 #2, what does the deposit list?
total luciferase, z-score: -0.173; total luciferase, % of control: 78.5; activity call: inactive

What is on record for STRN4 #3?
total luciferase, z-score: -1; total luciferase, % of control: 62; activity call: inactive

What did the screen give for BOLA3 #1?
total luciferase, z-score: -0.172; total luciferase, % of control: 78.5; activity call: inactive

What did the screen give for BOLA3 #2?
total luciferase, z-score: -0.28; total luciferase, % of control: 76.3; activity call: inactive

For BOLA3 #3, what was measured?
total luciferase, z-score: -0.292; total luciferase, % of control: 76.1; activity call: inactive

For SNX11 #1, how do the results read?
total luciferase, z-score: -1.11; total luciferase, % of control: 59.9; activity call: inactive

What did the screen give for SNX11 #2?
total luciferase, z-score: -0.238; total luciferase, % of control: 77.2; activity call: inactive

For SNX11 #3, what was measured?
total luciferase, z-score: 0.181; total luciferase, % of control: 85.5; activity call: inactive

What did the screen give for RUVBL1 #1?
total luciferase, z-score: 0.329; total luciferase, % of control: 88.4; activity call: inactive

Which result is listed for RUVBL1 #2?
total luciferase, z-score: 0.877; total luciferase, % of control: 99.3; activity call: inactive

What is on record for RUVBL1 #3?
total luciferase, z-score: -0.05; total luciferase, % of control: 80.9; activity call: inactive

With LINC01235 #1, what was measured?
total luciferase, z-score: -2.45; total luciferase, % of control: 33.1; activity call: inactive

What is on record for LINC01235 #2?
total luciferase, z-score: 0.0924; total luciferase, % of control: 83.7; activity call: inactive

What is on record for LINC01235 #3?
total luciferase, z-score: -0.949; total luciferase, % of control: 63; activity call: inactive

With YIPF6 #1, how do the results read?
total luciferase, z-score: 0.207; total luciferase, % of control: 86; activity call: inactive

How did the screen score YIPF6 #2?
total luciferase, z-score: -0.566; total luciferase, % of control: 70.6; activity call: inactive

How did the screen score YIPF6 #3?
total luciferase, z-score: -0.882; total luciferase, % of control: 64.3; activity call: inactive

Limited to “total luciferase, z-score” (3 entries from above):
LINC01235 #3 = -0.949
YIPF6 #1 = 0.207
YIPF6 #2 = -0.566

Further records:
Which result is listed for ZNF443 #1?
total luciferase, z-score: -1.88; total luciferase, % of control: 44.5; activity call: inactive

For ZNF443 #2, how do the results read?
total luciferase, z-score: 0.195; total luciferase, % of control: 85.8; activity call: inactive

With ZNF443 #3, what does the deposit list?
total luciferase, z-score: 3.14; total luciferase, % of control: 144; activity call: active

How did the screen score MSH3 #1?
total luciferase, z-score: -0.818; total luciferase, % of control: 65.6; activity call: inactive

How did the screen score MSH3 #2?
total luciferase, z-score: 1.88; total luciferase, % of control: 119; activity call: inactive

What did the screen give for MSH3 #3?
total luciferase, z-score: 0.0414; total luciferase, % of control: 82.7; activity call: inactive

What did the screen give for SPATA31H1 #1?
total luciferase, z-score: -0.345; total luciferase, % of control: 75; activity call: inactive

How did the screen score SPATA31H1 #2?
total luciferase, z-score: -0.411; total luciferase, % of control: 73.7; activity call: inactive

What did the screen give for SPATA31H1 #3?
total luciferase, z-score: -0.774; total luciferase, % of control: 66.5; activity call: inactive

With CELA1 #1, how do the results read?
total luciferase, z-score: -1.53; total luciferase, % of control: 51.5; activity call: inactive

How did the screen score CELA1 #2?
total luciferase, z-score: 0.594; total luciferase, % of control: 93.7; activity call: inactive

What did the screen give for CELA1 #3?
total luciferase, z-score: 0.24; total luciferase, % of control: 86.7; activity call: inactive

With PDIA4 #1, what was measured?
total luciferase, z-score: 0.0163; total luciferase, % of control: 82.2; activity call: inactive

What is on record for PDIA4 #2?
total luciferase, z-score: -0.106; total luciferase, % of control: 79.8; activity call: inactive

With PDIA4 #3, what was measured?
total luciferase, z-score: 1.58; total luciferase, % of control: 113; activity call: inactive
